Assay results: patent US20200038486A1, “THERAPEUTIC MEDICINE FOR FIBROUS DISEASE” (StemRIM Inc., priority 2017, published 2020)
At least one peptide structure holds a part that was inferred or is arguable (an end, a ring closure or a residue). Where no end group is shown, it is not given here.

What was measured:
[1] = system: 129SV/colVII homo mice (epidermolysis bullosa model mice); test: Survival time of epidermolysis bullosa model mice; format: in vivo; conditions: 0.2 mg/mL, 50 μL via tail vein, eight doses over four weeks; 10 animals per group; Kaplan-Meier, Log-rank test p<0.001
[2] = system: C57BL/6 male mice with skin ulcer; test: Full-thickness skin defect-type ulcer mouse model (Masson's-Trichrome staining of ulcer site); format: in vivo; conditions: 1.5 mg/kg/day via tail vein, eight times; 28 days after ulcer creation; N=9; p<0.05, Mann Whitney's test

Sequence: MGKGDPKKPRGKMSSYAFFVQTCREEHKKKHPDASVNFSEFSKK [HMGB1 peptide (1-44)]
- survival time [1]: significantly prolongs the survival time
- corrected percentage by area of collagen-positive region directly below the ulcer site (center region/margin region) [2]: significant suppression
